Data: PubChem BioAssay AID2551 (National Center for Advancing Translational Sciences (NCATS), 2010)
The campaign covered roughly 310,000 compounds. About 17,000 (5.5%) were called active. Inconclusive means that the source gave no clear call. Such entries were picked first, then a sample of the others. Calls follow the shape of the dose curve; as a rule, active = well fitted inhibition curve with a large enough effect; inconclusive = small, poorly fitted or top-dose-only effect, or effect the other way; inactive = no such curve, though single readings can be large or run the other way. Where the call is inconclusive, the potency comes from a doubtful curve fit.

Sequences of proteins named here, by UniProt entry; tags and fusion partners are left off. A change or cut given only in a name is not applied to a line headed by its entry.
UniProt P51450: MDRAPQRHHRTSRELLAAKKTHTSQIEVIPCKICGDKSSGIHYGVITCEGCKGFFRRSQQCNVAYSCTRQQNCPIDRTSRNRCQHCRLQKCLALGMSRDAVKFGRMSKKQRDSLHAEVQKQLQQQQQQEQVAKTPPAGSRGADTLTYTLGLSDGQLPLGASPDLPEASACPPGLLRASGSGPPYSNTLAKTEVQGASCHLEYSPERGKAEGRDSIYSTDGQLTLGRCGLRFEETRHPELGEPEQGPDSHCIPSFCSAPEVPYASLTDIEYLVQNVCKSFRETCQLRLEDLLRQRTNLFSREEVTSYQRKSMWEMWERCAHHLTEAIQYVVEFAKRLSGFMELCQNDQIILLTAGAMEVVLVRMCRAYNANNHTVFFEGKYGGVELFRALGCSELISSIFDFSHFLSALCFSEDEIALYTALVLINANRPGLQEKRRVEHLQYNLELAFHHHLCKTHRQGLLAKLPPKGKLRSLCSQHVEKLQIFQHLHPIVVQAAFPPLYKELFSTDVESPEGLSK

molecular target: Nuclear receptor ROR-gamma (Mus musculus) (UniProt P51450); assay: qHTS for inhibitors of ROR gamma transcriptional activity; conditions: Drosophila S2 Gal4-RORgamma UAS-luciferase reporter, 20 h; activity change, negative = inhibition: at 53.6 µM (top of the series); also: nearly all actives have a fitted effect of over 60% in size
Outline: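 Compounds are pin-transferred onto Drosophila Schneider cells expressing a copper-inducible Gal4–ROR gamma transactivation domain fusion. After 1 hr, copper sulfate is added to 700 uM final; luciferase is read 20 hr later.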
% is scaled to controls: 0 for no effect and ±100 for the full control effect; potency is read from the fitted curve at half-maximal effect.

Row | SMILES | Potency | activity change, negative = inhibition
1 | Cc1cc(C)nc(N/N=C2/CCCC/C2=C\c2ccccc2)n1 | active: 1.41 µM | –
2 | COc1ccc(OCC(O)CNC(=O)/C=C/c2cccc([N+](=O)[O-])c2)cc1 (configuration not stated) | inconclusive: 7.94 µM [activator, partial curve] | –
3 | CC(Oc1ccc(Cl)cc1Cl)C(=O)N(C)c1ccccc1 (configuration not stated) | – | inactive: 18.7%
4 | Cc1cc(C)nc(NS(=O)(=O)c2ccc(NC(=O)c3cc(-c4ccccc4)nc4ccccc34)cc2)n1 | inconclusive: 12.6 µM [activator, partial curve] | –
5 | O=C1c2cccc3c(N4CCCCC4)ccc(c23)C(=O)N1CCO | inconclusive: 4.47 µM [activator, full curve] | –
6 | Cc1cc(C)n(-c2nc(N(c3ccccc3)c3ccccc3)nc(-n3nc(C)cc3C)n2)n1 | active: 5.62 µM | –
7 | Oc1ccccc1N1CCN(C(c2ccccc2)c2ccccc2)CC1 | – | inactive: -5.61%
8 | O=C(NCCC1=CCCCC1)C1CCN(C(=O)c2ccc(Cl)cc2)CC1 | inconclusive: 17.8 µM [activator, single point] | –
9 | CCN(C(=S)Nc1cccc(C)c1)c1ccccc1 | active: 15.8 µM | –
10 | COc1ccccc1NC(=O)c1ccc(C)c(S(=O)(=O)N2CCCCC2)c1 | – | inactive: -41.9%
11 | Cc1ccc(S(=O)(=O)N2CCC(C(=O)N3CCN(Cc4ccccc4)CC3)CC2)cc1 | – | inactive: 10.3%
12 | Cc1ccc(C(C)C)c(OCC(O)CNC2CCCC2)c1 (configuration not stated) | inconclusive: 12.6 µM [inhibitor, single point] | –
13 | COC(=O)c1ccc(C)c(NC(=S)NCc2ccc(Cl)cc2)c1 | active: 8.91 µM | –
14 | CC(=O)Nc1ccc(C2=NNC(=NCC3CCCO3)SC2)cc1 (configuration not stated) | inconclusive: 0.005 µM [inhibitor, full curve, poor fit] | –
15 | COc1ccc(N=Cc2c(O)ccc3ccccc23)cc1 | inconclusive: 20 µM [inhibitor, single point] | –
16 | CCOC(=O)c1c(C)n(CC(O)CN(C)C)c2cc(Br)c(OC)cc12 (configuration not stated) | inconclusive: 11.2 µM [inhibitor, single point] | –
17 | CC1=C(C(=O)N2CCOCC2)C(c2ccc(-c3ccccc3)cc2)NC(=S)N1 (configuration not stated) | inconclusive: 10 µM [inhibitor, partial curve] | –
18 | S=C(c1ccc(-c2cccc(Cl)c2)o1)N1CCCCC1 | inconclusive: 11.2 µM [inhibitor, single point] | –
19 | NC(=O)C1Cc2ccccc2CN1S(=O)(=O)c1ccc(Cl)s1 (configuration not stated) | – | inactive: 7.48%
20 | O=C(CSc1nc2ccccc2s1)NNC(=S)Nc1ccc(Br)cc1 | active: 0.891 µM | –
21 | O=C(C1CCC(=O)N(C2CC2)C1)N1CCC(Oc2cccc(F)c2)CC1 (configuration not stated) | – | inactive: -4.42%
22 | NNC(=O)c1cccc(COc2ccc(Br)cc2)c1 | inconclusive: 17.8 µM [inhibitor, single point] | –
23 | COc1cc(NC(=O)c2cccs2)c(OC)cc1NC(=O)Cc1ccccc1 | inconclusive: 17.8 µM [activator, partial curve, poor fit] | –
24 | CCC(C(=O)NC(C)CCc1ccccc1)n1nc(C)n2c(cc3occc32)c1=O (configuration not stated) | inconclusive: 14.1 µM [activator, single point] | –

Of the compounds above, 3 contain bromine.
Row | SMILES | Potency | activity change, negative = inhibition
16 | CCOC(=O)c1c(C)n(CC(O)CN(C)C)c2cc(Br)c(OC)cc12 (configuration not stated) | inconclusive: 11.2 µM [inhibitor, single point] | –
20 | O=C(CSc1nc2ccccc2s1)NNC(=S)Nc1ccc(Br)cc1 | active: 0.891 µM | –
22 | NNC(=O)c1cccc(COc2ccc(Br)cc2)c1 | inconclusive: 17.8 µM [inhibitor, single point] | –

Later entries:

Row | SMILES | Potency | activity change, negative = inhibition
25 | CN(Cc1ccno1)Cc1cn(Cc2ccccc2)nc1-c1ccc2c(c1)OCO2 | inconclusive: 25.1 µM [inhibitor, single point] | –
26 | Cc1ccc(O)c(N=Cc2sc3ccccc3c2Cl)c1 | inconclusive: 25.1 µM [inhibitor, single point] | –
27 | COc1ccc2nc(NC(=O)Cc3ccc(OC)c(S(=O)(=O)N4CCOCC4)c3)sc2c1 | inconclusive: 11.2 µM [activator, partial curve] | –
28 | CCOC(=O)Cc1csc(NC(=O)/C=C/c2ccccc2Cl)n1 | inconclusive: 12.6 µM [inhibitor, single point] | –
29 | CN(C)CCCN(C(=O)CCOc1ccccc1)c1nc2ccc(F)cc2s1 | active: 10 µM | –
30 | CCn1c2ccccc2c2cc(NC(=O)c3ccccc3[N+](=O)[O-])ccc21 | inconclusive: 3.98 µM [activator, full curve] | –
31 | NCC[C@H](O)C(=O)N[C@H]1C[C@@H](N)[C@@H](O[C@H]2O[C@@H](CN)[C@@H](O)[C@@H](O)[C@@H]2O)[C@@H](O)[C@@H]1O[C@H]1O[C@@H](CO)[C@@H](O)[C@@H](N)[C@@H]1O | – | inactive: -6.74% [at 16.9 µM]
32 | Cn1c2ccccc2c2ncn(Cc3ccco3)c(=O)c21 | – | inactive: -11.5%
33 | CC1=C(C(=O)c2ccccc2)C(c2cccc([N+](=O)[O-])c2)NC(=S)N1 (configuration not stated) | inconclusive: 17.8 µM [inhibitor, single point] | –
34 | Cc1ccc(S(=O)(=O)N(c2ccccc2)C2CCS(=O)(=O)C2)cc1 (configuration not stated) | inconclusive: 28.2 µM [inhibitor, single point] | –
35 | CCCCSc1nnc(CNC(=O)C23CC4CC(CC(C4)C2)C3)n1Cc1ccccc1 | inconclusive: 35.5 µM [inhibitor, single point] | –
36 | CC(O)CNc1nc2c(c(=O)n(C)c(=O)n2C)n1C/C=C/c1ccccc1 (configuration not stated) | inconclusive: 11.2 µM [activator, single point] | –
37 | COC(=O)c1ccc(C(=O)OC)c(NC(=O)COC(=O)C2CCCCC2)c1 | inconclusive: 3.16 µM [inhibitor, single point] | –
38 | N#CC1=C(N)C(C#N)(C#N)C(c2cccnc2)C2CCCC=C12 (configuration not stated) | inconclusive: 25.1 µM [inhibitor, partial curve] | –
39 | Cc1ncoc1C(=O)N1CCCC(C(=O)c2ccc(C(F)(F)F)cc2)C1 (configuration not stated) | inconclusive: 3.16 µM [inhibitor, full curve] | –
40 | COc1cccc(CN2CC(C(=O)NC3(c4ccccc4)CC3)CCC2=O)c1 (configuration not stated) | inconclusive: 1 µM [activator, single point] | –
41 | Cc1nn(-c2ccccc2)c2[nH]c(C(F)(F)F)cc(=O)c12 | inconclusive: 35.5 µM [activator, single point] | –
42 | S=C(NCc1ccccc1)NC1CCCCC1 | active: 3.98 µM | –
43 | NC(N)=NS(=O)(=O)c1ccc(NC(=S)NC(=O)c2ccccc2)cc1 | – | inactive: 2.74%
44 | O=C(Cc1ccc(Cl)cc1)NNC(=S)NC(=O)c1cccnc1 | inconclusive: 14.1 µM [inhibitor, partial curve] | –
45 | COC(=O)c1c(NC(=O)CSc2nc(-c3ccco3)cc(C(F)(F)F)n2)sc2c1CCCC2 | – | inactive: -7.15%
46 | Cc1cccc(N/C(N)=N/c2nc(C)cc(C)n2)c1 | – | inactive: -17.6%
47 | Cc1ccc(S(=O)(=O)CCC(=O)OCC(=O)N2CCc3ccccc32)cc1 | – | inactive: -22.6%
48 | CCn1c(=O)cc(OCC(=O)Nc2nc(C)cs2)c2ccccc21 | inconclusive: 2.51 µM [activator, partial curve, poor fit] | –

Row | SMILES | Potency | activity change, negative = inhibition
49 | CC(C)c1csc(CN2CCCC(CCC(=O)NCc3ccccc3F)C2)n1 (configuration not stated) | inconclusive: 35.5 µM [activator, single point] | –
50 | CCCNC(=S)NCc1ccc(Cl)cc1 | active: 10 µM | –
51 | CCCCc1ccc(NC(=S)NCc2ccccc2OC)cc1 | active: 2 µM | –
52 | COc1cc([N+](=O)[O-])ccc1-c1ccc(/C=N/NC(=O)c2ccccc2O)o1 | active: 1 µM | –
53 | O=S(=O)(N/N=C/c1ccc(OC2CSC2)cc1)c1ccccc1 | inconclusive: 3.55 µM [inhibitor, partial curve] | –
54 | Brc1ccc(NC2=Nc3ccccc3CC2)cc1 | inconclusive: 31.6 µM [inhibitor, single point] | –
55 | Cc1ccc2cc(CCNC(=O)c3ccc4c(c3)OCO4)c(=O)[nH]c2c1C | inconclusive: 17.8 µM [activator, single point] | –
56 | Cc1ccc(CSCC(=O)N/N=C/c2sccc2C)cc1 | inconclusive: 35.5 µM [inhibitor, single point] | –
57 | Cc1ccccc1NC(=S)Nc1ccc(Br)cc1 | active: 11.2 µM | –
58 | CCc1ccccc1NC(=S)N1CCN(c2cccc(OC)c2)CC1 | active: 10 µM | –
59 | O=[N+]([O-])c1ccc(O)c(C2=NNC(c3ccccc3F)C2)c1 (configuration not stated) | active: 6.31 µM | –
60 | CCCCNC(=S)N(C)N=C1CCC(c2ccccc2)CC1 (configuration not stated) | inconclusive: 22.4 µM [inhibitor, single point] | –
61 | OCCN(Cc1ccccc1)C(=S)Nc1ccc(Cl)cc1Cl | inconclusive: 35.5 µM [inhibitor, single point] | –
62 | O=C(NC(=S)Nc1ccc(CN2CCOCC2)cc1)c1ccc([N+](=O)[O-])cc1 | active: 14.1 µM | –
63 | COc1ccc(/C=C/C(=O)CC(O)(c2ccccc2)C(F)(F)F)cc1 (configuration not stated) | active: 14.1 µM | –
64 | COc1ccc(/C=N/NC(=O)CSc2nnc(C)n2-c2ccccc2)c(OC)c1OC | – | inactive: 43.4%
65 | O=C(NCc1ccco1)c1ccc(-c2ccc(Cl)cc2)o1 | inconclusive: 20 µM [activator, single point] | –
66 | Clc1cccc(Cl)c1/C=N\Nc1nccs1 | inconclusive: 35.5 µM [inhibitor, single point] | –
67 | O=C(Nc1ccccc1)C1=C[C@@H](c2ccc(C(F)(F)F)cc2)C[C@@H](OCc2ccc(CO)cc2)O1 | inconclusive: 25.1 µM [activator, single point] | –
68 | COc1cccc2sc(NNC(=O)C3=COCCO3)nc12 | inconclusive: 8.91 µM [inhibitor, partial curve] | –
69 | Cc1ccc(SCc2ccc(C(=O)N3CCCC3)cc2)cc1 | inconclusive: 6.31 µM [activator, partial curve] | –
70 | CCN(CC)c1ccc(C2=NNC(=O)CC2C)cc1[N+](=O)[O-] (configuration not stated) | inconclusive: 20 µM [activator, single point] | –
71 | O=C1CC(c2c(F)cccc2Cl)C2=C(COC2=O)N1 (configuration not stated) | inconclusive: 20 µM [activator, single point] | –
72 | O=C(O)C1CC(c2ccccc2)=Nc2ccccc2S1 (configuration not stated) | – | inactive: 7.86%
